Reference: publication PMC9320886, “Daily Intraperitoneal Administration of Rosiglitazone Does Not Improve Lung Function or Alveolarization in Preterm Rabbits Exposed to Hyperoxia” (Pharmaceutics, 2022)

Test system: preterm rabbits exposed to hyperoxia
Assay: quantitative lung proteomic analysis by mass spectrometry
Format: in vivo, rabbit

## CN(CCOc1ccc(CC2SC(=O)NC2=O)cc1)c1ccccn1 (centres unmarked) [RGZ, rosiglitazone]
Daily 1 mg/kg vs vehicle
  number of lung proteins significantly downregulated: 60
  number of lung proteins significantly upregulated: 38
  significantly modulated pathways (Metascape enrichment): did not identify any significantly modulated pathway
Daily 10 mg/kg vs vehicle
  number of lung proteins significantly downregulated: 100
  number of lung proteins significantly upregulated: 75
